Laboratory results: paper PMC10995192 (Nature Communications, 2024)
Results are given in words; binding and its absence hold for the method and conditions named. Some binding calls cover weakened binding; strength is not graded here.

Sequences of proteins named here, by UniProt entry; tags and fusion partners are left off. Residues count along the entry.
UniProt P34741, residues 19-144: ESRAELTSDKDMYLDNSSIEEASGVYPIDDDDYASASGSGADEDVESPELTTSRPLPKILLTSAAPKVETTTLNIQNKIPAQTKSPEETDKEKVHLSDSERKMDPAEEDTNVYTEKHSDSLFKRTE
UniProt Q9H7M9, residues 33-194: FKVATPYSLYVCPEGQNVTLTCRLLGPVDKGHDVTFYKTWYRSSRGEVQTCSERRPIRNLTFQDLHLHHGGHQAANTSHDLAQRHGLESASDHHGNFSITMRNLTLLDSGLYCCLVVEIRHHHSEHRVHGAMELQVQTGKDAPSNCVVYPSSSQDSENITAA

Target: hSyndecan-2 (R&D Systems 2965-SD) (human) (UniProt P34741)
Assay: ELISA; partner proteins coated at 5 µg/ml, biotinylated hVISTA-Fc serially diluted in 2% BSA in PBS at pH 7.4; HRP-streptavidin; both purified

binding: binds weakly
Substance: C-terminal biotinylated hVISTA-Fc fusion protein (R&D Systems AVI7126-050) (from UniProt Q9H7M9 33-194)
